Measurements reported in PubChem BioAssay AID1259254 (NCATS, 2017).

Aim: 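Gene knock-downs that lead to re-replication, shown by excess G2 DNA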 (primary screen)
System: human HCT116 colorectal cancer cells
Reagent: single siRNA against human genes
Timing: 3 days
Detection: 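Nuclei stained with Hoechst and imaged; cell-cycle phase assigned by DNA content; G2 share scaled per plate, non-targeting siRNA 0%, GMNN siRNA 100%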
Reading the numbers: G2 robust z-score and G2 cells, % of GMNN control: higher = more G2 cells, more excess DNA replication
Active means: 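An siRNA counts as active if its G2 robust z-score lies at least 5 MADs above the screen median; here such calls match roughly 38% of GMNN control or more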
Here is one part, drawn at random, of about 59,000 deposited reagents. About 1,550 of them (2.6%) were called active. 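G2 share is only a proxy for re-replication; each gene was hit by three separate siRNAs, and active genes were retested.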 Reagents against one gene are numbered here. Further read-outs or replicates are left out here. The record does not give: the amount of reagent.

gene	siRNA no.	G2 robust z-score	G2 cells, % of GMNN control	outcome
LOXL4 (lysyl oxidase like 4)	1	-1.17	-5.29	inactive
LOXL4 (lysyl oxidase like 4)	2	-1.27	-5.96	inactive
LOXL4 (lysyl oxidase like 4)	3	-0.96	-3.79	inactive
MT2A (metallothionein 2A)	1	-0.637	-1.51	inactive
MT2A (metallothionein 2A)	2	0.693	7.84	inactive
MT2A (metallothionein 2A)	3	-0.0842	2.38	inactive
ANK1 (ankyrin 1)	1	-0.922	-3.52	inactive
ANK1 (ankyrin 1)	2	0.179	4.23	inactive
ANK1 (ankyrin 1)	3	0.523	6.65	inactive
UTP6 (UTP6 small subunit processome component)	1	2.11	17.8	inactive
UTP6 (UTP6 small subunit processome component)	2	2.07	17.5	inactive
UTP6 (UTP6 small subunit processome component)	3	5.46	41.4	active
OR52R1 (olfactory receptor family 52 subfamily R member 1)	1	-0.789	-2.58	inactive
OR52R1 (olfactory receptor family 52 subfamily R member 1)	2	0.343	5.38	inactive
OR52R1 (olfactory receptor family 52 subfamily R member 1)	3	2.21	18.5	inactive
CAVIN2 (caveolae associated protein 2)	1	-0.593	-1.2	inactive
CAVIN2 (caveolae associated protein 2)	2	-0.882	-3.24	inactive
CAVIN2 (caveolae associated protein 2)	3	-0.655	-1.64	inactive
ELOVL4 (ELOVL fatty acid elongase 4)	1	1.68	14.8	inactive
ELOVL4 (ELOVL fatty acid elongase 4)	2	-0.722	-2.11	inactive
ELOVL4 (ELOVL fatty acid elongase 4)	3	-0.838	-2.93	inactive
EHBP1 (EH domain binding protein 1)	1	1.11	10.8	inactive
EHBP1 (EH domain binding protein 1)	2	-0.939	-3.64	inactive
EHBP1 (EH domain binding protein 1)	3	-0.441	-0.132	inactive
ROBO1 (roundabout guidance receptor 1)	1	2.39	19.8	inactive
ROBO1 (roundabout guidance receptor 1)	2	-0.293	0.909	inactive
ROBO1 (roundabout guidance receptor 1)	3	-0.97	-3.85	inactive
CCDC102A (coiled-coil domain containing 102A)	1	-1.23	-5.68	inactive
CCDC102A (coiled-coil domain containing 102A)	2	1.98	16.9	inactive
CCDC102A (coiled-coil domain containing 102A)	3	0.142	3.97	inactive

Entries above with an active call (1):
gene	siRNA no.	G2 robust z-score	G2 cells, % of GMNN control	outcome
UTP6 (UTP6 small subunit processome component)	3	5.46	41.4	active
